# Data: paper PMC7819943, “Rice protein-binding microarrays: a tool to detect cis-acting elements near promoter regions in rice”
# Protein sequences, listed by entry. Tags and fused reporters are not part of them.
# UniProt Q0JBA9, entry or part of it: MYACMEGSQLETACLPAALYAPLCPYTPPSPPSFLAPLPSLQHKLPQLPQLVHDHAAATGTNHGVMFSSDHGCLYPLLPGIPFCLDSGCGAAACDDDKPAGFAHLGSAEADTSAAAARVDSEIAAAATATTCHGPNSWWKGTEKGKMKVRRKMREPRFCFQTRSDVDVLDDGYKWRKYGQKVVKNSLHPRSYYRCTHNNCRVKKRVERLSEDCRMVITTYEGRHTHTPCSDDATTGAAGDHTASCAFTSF
# Some of the results follow.
# Target: OsWRKY34 (Oryza sativa, UniProt Q0JBA9 1-250)
# Experiment: protein-binding microarray (RPBM); PBS, 2% BSA, 51.3 ng/ul salmon testes DNA, 50 uM zinc acetate, 200 nM TF, 25 C, 1 h; high values mean tight binding
# Conditions: protein: recombinant; tags: N-terminal polyhistidine and DsRed monomer fusion (pET32a); label: CyDye5-dUTP incorporated in the synthesized complementary strand; 3' TTTTT single-stranded linker to array surface; dsDNA, one strand shown
# Summary of the method: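 In PBS with 2% BSA, salmon testes DNA and 50 µM zinc acetate, 200 nM protein was incubated on a custom Agilent array at 25 °C for 1 h and then washed off. The array had been made double-stranded by primer extension with Cy5-dUTP and blocked with 2% BSA. The proteins were transcription factors fused N-terminally to polyhistidine and DsRed, expressed in E. coli BL21-CodonPlus and purified on Ni–NTA. The binding signal is per-feature fluorescence intensity (arbitrary units) from an Axon 4000B scanner.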
row,Sequence,binding signal
1,AATACACCAAAATCGCCGCCCAAACTCAAATTATCTTATTCGGAGTCACCTAGTGCAG,8340 fluorescence intensity (a.u.)
2,GGGGCAAAACCGTCTTTCTCCTCATCCAGCTACAGTCATCCGGAGTCACCTAGTGCAG,8560 fluorescence intensity (a.u.)
3,ACTGAAAAGTTGTGTGTGTATGACAGGTTGATGTGATGGACGGAGTCACCTAGTGCAG,8740 fluorescence intensity (a.u.)
4,TCTTGCCATCGCCGCTCCAAGCGAGCTGAACCTTCGCCGGCGGAGTCACCTAGTGCAG,8610 fluorescence intensity (a.u.)
5,CTCATAAACTTTAAACTTTTCCGTCACATCATTCTAATTTCGGAGTCACCTAGTGCAG,10200 fluorescence intensity (a.u.)
6,CACTCTGCCTCACCTCACCTCACCTCACGTCCTCACCTCCCGGAGTCACCTAGTGCAG,10300 fluorescence intensity (a.u.)
7,CTAATTCTTTGCTTAGTTTTCTGTGTCAAGAGGCCTCAAACGGAGTCACCTAGTGCAG,8250 fluorescence intensity (a.u.)
8,GGGTGGGGAAGGCCCTTTACGATCCTACAATTGTTATTAGCGGAGTCACCTAGTGCAG,12100 fluorescence intensity (a.u.)
9,TCCCAGCCGTTGGATTAGCCCTTCACCGCCGTCCAAACCCCGGAGTCACCTAGTGCAG,8110 fluorescence intensity (a.u.)
10,AACTATTTTCATCCCTCGAGGACATATCTCCTCGTTGTTTCGGAGTCACCTAGTGCAG,11100 fluorescence intensity (a.u.)
11,TGTTGCTATCGCGTCCTGCTCTGCCACCACCGTCGCCGCGCGGAGTCACCTAGTGCAG,10100 fluorescence intensity (a.u.)
12,ACTTTTTTTTAAGACAAACATGTAACCTACTCCTGTCTAACGGAGTCACCTAGTGCAG,8160 fluorescence intensity (a.u.)
13,ACCTCCTCCGCTTTCACGCAGGTCATCCATCCCACCAACTCGGAGTCACCTAGTGCAG,10500 fluorescence intensity (a.u.)
14,GTCTGACAGTGGGCCCAACCGTTTTTCCTTTTTATCCTTGCGGAGTCACCTAGTGCAG,8060 fluorescence intensity (a.u.)
15,CCTTGTACTGATCCAGCTACCTACTCCACTCCACTACCATCGGAGTCACCTAGTGCAG,8880 fluorescence intensity (a.u.)
16,GGCTGGAGAGAGAGAGGATGACAAGTGGGCCCCACAATATCGGAGTCACCTAGTGCAG,9750 fluorescence intensity (a.u.)
17,TAGTTGGAGGTCTCAAAGTGGACTTTTCCAATGGCATTTCCGGAGTCACCTAGTGCAG,8080 fluorescence intensity (a.u.)
18,GCTTCATGGATTCTTCTGCGTCTAATAATTTTCCCGTTCTCGGAGTCACCTAGTGCAG,8280 fluorescence intensity (a.u.)
19,GCTAGTGTTCTCGAGTCCAAACATTCATGGACGGTCGGGGCGGAGTCACCTAGTGCAG,9680 fluorescence intensity (a.u.)
20,CAATTTGACTCCCTCGGCAGTTTTGGATGGTGGTTTCGCTCGGAGTCACCTAGTGCAG,9020 fluorescence intensity (a.u.)
21,CGATGGCTGGAGGGGAGGCGGCGGCGCATCGTGGCGGGCGCGGAGTCACCTAGTGCAG,8030 fluorescence intensity (a.u.)

row,Sequence,binding signal
1,ATCACTTTTCTAGCATCCATATTTCTACATGCATCCTTACCGGAGTCACCTAGTGCAG,8690 fluorescence intensity (a.u.)
2,GGGTGGTTGGGTTGTGGATAGCGGCTGCGACGACGAGGGCCGGAGTCACCTAGTGCAG,10400 fluorescence intensity (a.u.)
3,TACCACTCTTTTAGTTCTTCCTAATATTTTGCCATTATAGCGGAGTCACCTAGTGCAG,9140 fluorescence intensity (a.u.)
4,CTTTTCCGTGGTGTTTTCTCGCGTGATCTGCACGCGGGTTCGGAGTCACCTAGTGCAG,9750 fluorescence intensity (a.u.)
5,TCGGCCTACCTGCTCTCTTCTCCTGCCCGGCCGATTGCTACGGAGTCACCTAGTGCAG,9780 fluorescence intensity (a.u.)
6,CCTTCCCAATTCTGCTTCAACCCCTTCTGTTTTTTTCAGACGGAGTCACCTAGTGCAG,8840 fluorescence intensity (a.u.)
7,TTTTTTTGTGCTTCCTTTATTTTTCACAACGAGAAGTTTACGGAGTCACCTAGTGCAG,8280 fluorescence intensity (a.u.)
8,GGTTAGGAGGTCACAGGTGGTGGTTCCAGATCCGTTAGCGCGGAGTCACCTAGTGCAG,8930 fluorescence intensity (a.u.)
9,ACATAATCTCCTTGTAATCTTAATCGATCGCTCCTGTTTCCGGAGTCACCTAGTGCAG,11000 fluorescence intensity (a.u.)
10,GGTTTGTCCTAAGTCAAATATGCATATCTTTGACCATTAGCGGAGTCACCTAGTGCAG,10400 fluorescence intensity (a.u.)
11,GGGCAGGGAAGGATCTTCGATAGGCTTTGATGAGCAGGGGCGGAGTCACCTAGTGCAG,9030 fluorescence intensity (a.u.)
12,AATGGTCAAACGTTGGATAAAAAGTCAACGGCGTCATACACGGAGTCACCTAGTGCAG,14700 fluorescence intensity (a.u.)
13,TTTCCTAATAGTAGTACTTGACAGCCTATCACTCCACCAACGGAGTCACCTAGTGCAG,8910 fluorescence intensity (a.u.)
14,GACCATAGTTCCAGCGACTTAAATTCATTCGGCCCATCAACGGAGTCACCTAGTGCAG,9210 fluorescence intensity (a.u.)
15,CATGCTCCTTGCCCTTTTCAATCTTCATAGATCCTATCTACGGAGTCACCTAGTGCAG,9670 fluorescence intensity (a.u.)
16,ATATACATTTAATTCTATTTGATTTTCTGTTTCACATCTTCGGAGTCACCTAGTGCAG,8730 fluorescence intensity (a.u.)
17,CACAAGCATTTTTCATTTAATTTTTTTACCTATATGTTCTCGGAGTCACCTAGTGCAG,10800 fluorescence intensity (a.u.)
18,TTCATCAGTTAATCGGCGTGTTCCTTTCACCATTGGTCCACGGAGTCACCTAGTGCAG,8400 fluorescence intensity (a.u.)
19,AACCCTCGCTTTCTTTGATAATCATTCCTAACTGCCTGGTCGGAGTCACCTAGTGCAG,8170 fluorescence intensity (a.u.)
20,CAGGTTTGACCGACCTTTCAACCGATCGACGCTACCGCACCGGAGTCACCTAGTGCAG,8460 fluorescence intensity (a.u.)
21,GAATATCAAAACTTCACACACTTTTTGCACTGGGTTTTCACGGAGTCACCTAGTGCAG,8540 fluorescence intensity (a.u.)

# Shown tab-delimited: part of the list above.
row	Sequence	binding signal
8	GGTTAGGAGGTCACAGGTGGTGGTTCCAGATCCGTTAGCGCGGAGTCACCTAGTGCAG	8930 fluorescence intensity (a.u.)
21	GAATATCAAAACTTCACACACTTTTTGCACTGGGTTTTCACGGAGTCACCTAGTGCAG	8540 fluorescence intensity (a.u.)
